Measured values from PubChem BioAssay AID1671190 (National Center for Advancing Translational Sciences (NCATS), 2021).
Screen size: about 580,000 compounds; about 6,100 (1.1%) were called active. This list was built around the results that the source calls inconclusive (neither active nor inactive); the mix of calls is not that of the screen. Calls follow the shape of the dose curve; as a rule, active = well fitted inhibition curve with a large enough effect; inconclusive = small, poorly fitted or top-dose-only effect, or another doubt; inactive = no such curve, though single readings can be large or run the other way. Potencies beside an inconclusive call are fits to weak or partial responses and may not hold up.

Protein sequences, listed by entry. Tags and fused reporters are not part of them. Lines headed by an entry give the natural chain unless they say otherwise; changes in a name come on top.
UniProt P18054: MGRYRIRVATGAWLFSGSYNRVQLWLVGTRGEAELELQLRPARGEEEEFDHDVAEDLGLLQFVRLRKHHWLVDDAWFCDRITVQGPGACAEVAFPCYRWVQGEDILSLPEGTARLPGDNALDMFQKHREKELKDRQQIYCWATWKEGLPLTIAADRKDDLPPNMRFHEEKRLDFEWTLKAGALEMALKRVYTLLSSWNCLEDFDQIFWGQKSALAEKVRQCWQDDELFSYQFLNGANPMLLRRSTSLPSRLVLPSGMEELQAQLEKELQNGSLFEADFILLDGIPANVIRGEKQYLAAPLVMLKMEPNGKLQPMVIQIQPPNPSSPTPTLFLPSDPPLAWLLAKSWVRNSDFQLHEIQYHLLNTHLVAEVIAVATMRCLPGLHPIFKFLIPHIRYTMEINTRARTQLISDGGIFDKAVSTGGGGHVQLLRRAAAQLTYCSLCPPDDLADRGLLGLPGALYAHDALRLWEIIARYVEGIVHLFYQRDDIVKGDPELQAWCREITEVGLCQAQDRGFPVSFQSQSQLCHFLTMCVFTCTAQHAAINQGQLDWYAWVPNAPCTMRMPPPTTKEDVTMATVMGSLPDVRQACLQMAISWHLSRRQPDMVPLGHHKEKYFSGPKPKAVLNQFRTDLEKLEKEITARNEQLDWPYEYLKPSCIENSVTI

target: Polyunsaturated fatty acid lipoxygenase ALOX12 (Homo sapiens) (UniProt P18054); assay: Primary qHTS assay for inhibitors of human arachidonate 12S-lipoxygenase (ALOX12): Round 2; conditions: purified 12hLO, xylenol orange hydroperoxide absorbance; activity change, negative = inhibition: at 108 µM (top of the series) unless noted
How it was run: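 Purified human 12hLO (150 nM final) in 25 mM Hepes, 0.01% Triton X-100, pH 7.0 was preincubated 15 min at room temperature with compound. Then 40 uM arachidonic acid was added, 30 min. Hydroperoxide was read by Fe-XO absorbance ratio 573/405 nm.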
% is scaled to controls: 0 for no effect and ±100 for the full control effect; potency is read from the fitted curve at half-maximal effect.

SMILES | activity change, negative = inhibition | Potency
COc1ccc(C(=O)NC(=S)Nc2ccc(N3CCN(C(C)=O)CC3)cc2)cc1[N+](=O)[O-] | inactive: 75.1% | 
COc1ccc([C@H]2CC(=O)C=C(c3cccc(C(F)(F)F)c3)C2)cc1 | inactive: -1.96% | 
CCCCn1c(O)c(/C=C/C=C/C=Nc2ccccc2)sc1=S |  | active: 12.6 µM
CC1CCN(Cc2c(C(=O)N/N=C/c3ccc(C(F)(F)F)cc3)nnn2-c2nonc2N)CC1 | inactive: 0.876% | 
CC(=O)Nc1ncc([N+](=O)[O-])s1 |  | inconclusive: 35.5 µM [inhibitor, partial curve, poor fit]
CCO[C@@H]1OC(C(=O)N2CCN(Cc3ccccc3)CC2)=C[C@H](c2csc3ccccc23)[C@H]1CCCO | inactive: 63.7% | 
COC(=O)[C@@H]1C[C@@]2(O)[C@H](O)[C@H](O)[C@H](O)C[C@H]2N1Cc1ccc(-c2ccccc2)cc1 | inactive: 104% | 
Cc1cc2ncc(C(=O)N3CCC(N4CCCC4)CC3)cn2n1 | inactive: 43.1% [at 176 µM] | 
OCC1CN(c2ncccn2)CC12CCN(Cc1ccncc1)CC2 (stereo not drawn) | inactive: -4.55% | 
C(#CCN1CCN(CC#CCOC(c2ccccc2)c2ccccc2)CC1)COC(c1ccccc1)c1ccccc1 |  | inconclusive: 35.5 µM [inhibitor, partial curve, poor fit]
Nc1nc2c(s1)COc1ccccc1-2 |  | inconclusive: 50.1 µM [inhibitor, partial curve, poor fit]
FC(F)(F)c1cc(-c2cccs2)nc2ncnn12 | inactive: 4.87% | 
CCC(C)(C)NC(=O)C1c2ccccc2Oc2ccccc21 |  | inconclusive: 100 µM [inhibitor, partial curve, poor fit]
COCC(=O)N1CCCC(C(=O)N2CCN(c3ccccc3OC)CC2)CCNC(=O)CC1 (stereo not drawn) | inactive: 26.5% | 
O=C(N/N=C/c1c[nH]c2c1ccc1ccccc12)c1ccc([N+](=O)[O-])cc1 | inactive: -0.176% | 
Cc1nn(C(C)C(=O)NCCCN2CCCCCC2)c(=O)c2c1sc1ccccc12 (stereo not drawn) | inactive: -26.1% | 
CCCc1nc2c3ccccc3ccn2c1Cc1ccccc1C(F)(F)F |  | inconclusive: 44.7 µM [inhibitor, partial curve, poor fit]
Fc1cccc(Cl)c1/C=N/Nc1ccccn1 | inactive: 475% | 
COc1ccc(CNC(=S)Nc2ccc(F)c(Cl)c2)cc1OC |  | inconclusive: 44.7 µM [inhibitor, partial curve, poor fit]
CCN(CC)S(=O)(=O)c1ccc(NC2c3ccccc3C(=O)N2Cc2ccco2)cc1 (stereo not drawn) |  | inconclusive: 28.2 µM [inhibitor, single point]
COCCCN1CC2(CCN(C(=O)c3nn(C)c4ccccc34)CC2)CC1=O |  | inconclusive: 100 µM [inhibitor, partial curve, poor fit]
COc1cc2ccccc2cc1C(=O)N1CCN(c2nc3ccc(F)cc3s2)CC1 |  | inconclusive: 50.1 µM [inhibitor, partial curve, poor fit]
CSc1c[n+]2c(n1C)CCC2 |  | active: 44.7 µM

SMILES | activity change, negative = inhibition | Potency
O=C(CN1CCN(c2ccccn2)CC1)NCCc1ccccc1 | inactive: 0% | 
CCc1ccc(N/C(SC)=C(/C#N)C(N)=O)cc1 |  | inconclusive: 31.6 µM [inhibitor, partial curve, poor fit]
Cc1ccc(-n2c([S-])c(C(=O)Nc3ccc(OC(F)F)cc3)[n+]3ccc(C(=O)NCCO)cc23)cc1C |  | inconclusive: 39.8 µM [inhibitor, partial curve]
Cc1ccc(C(=O)NCC(=O)OCC(=O)c2ccc(Br)s2)cc1 |  | inconclusive: 50.1 µM [inhibitor, partial curve, poor fit]
CC(C)(CNC(=O)c1ccc(Cl)c(S(=O)(=O)N2CCc3ccccc3C2)c1)N1CCOCC1 |  | inconclusive: 89.1 µM [inhibitor, single point]
O=C(NCc1ccccc1)c1ccc(-c2ccccc2C(F)(F)F)o1 |  | inconclusive: 35.5 µM [inhibitor, partial curve, poor fit]
O=C(N/N=C/c1ccc2cccnc2c1)c1ccco1 | inactive: -14.7% | 
N#C/C(=C\c1cc(Br)c(I)o1)c1nc2ccccc2[nH]1 |  | inconclusive: 35.5 µM [inhibitor, partial curve, poor fit]
C[N+](C)(C)CC#CCCCC#CC[N+](C)(C)C |  | active: 11.2 µM
COCCn1c(SCC(=O)c2ccc(Br)s2)nnc1-c1ccc(Cl)cc1 |  | inconclusive: 28.2 µM [inhibitor, partial curve, poor fit]
COc1cccc(C2NC(=S)N(Cc3ccc(Br)cc3)C(C)=C2C(C)=O)c1 (stereo not drawn) |  | inconclusive: 35.5 µM [inhibitor, partial curve, poor fit]
CCCCn1c(CNC(=O)C(C)(C)C)nc2ccccc21 | inactive: 9.69% | 
Cc1ccc2nc(-c3ccc(Cl)cc3)c(Cc3cccc(F)c3)n2c1 |  | inconclusive: 31.6 µM [inhibitor, single point]
COc1ccc(N2Cc3nc(=O)n(CC(=O)NCc4ccccc4)n3C2=O)cc1 |  | inconclusive: 39.8 µM [inhibitor, single point]
CCC(=O)Nc1ccc(C(=O)CSc2nnc(-c3ccc(O)cc3)n2CC2CCCO2)cc1 (stereo not drawn) |  | inconclusive: 50.1 µM [inhibitor, partial curve, poor fit]
CS(=O)(=O)Nc1cccc(-c2cc(NCc3cccs3)ncn2)c1 |  | inconclusive: 56.2 µM [inhibitor, partial curve, poor fit]
O=C(NCc1ccncc1)C1(c2cccc(C(F)(F)F)c2)CCOCC1 | inactive: 23% | 
CC(=O)NCCNC[C@@H]1C=C(C)[C@H](Cc2nnc(-c3cncn3C)o2)C[C@H]1C(C)C | inactive: 12.6% [at 176 µM] | 
COc1cc(C(=S)N2CCOCC2)ccc1OC(=O)c1cc([N+](=O)[O-])cc([N+](=O)[O-])c1 |  | inconclusive: 100 µM [inhibitor, partial curve, poor fit]
Cc1cc(NC(=O)CSc2nc3c(C)c(C)ccc3cc2C)no1 |  | inconclusive: 39.8 µM [inhibitor, single point]
CN(CCCC1CCCC1)C(=O)c1cc(COc2c(F)cccc2F)on1 |  | inconclusive: 112 µM [inhibitor, single point]
COc1ccc2ncc3c(-c4ccc(C)c(C)c4)nn(CC(=O)NC4CCCC4)c3c2c1 |  | inconclusive: 126 µM [inhibitor, partial curve, poor fit]
CCc1ccc(NC(=O)N2CCC(N3CC4CC(C3)[C@H]3CCCC(=O)N3C4)CC2)cc1 (stereo partly drawn) |  | inconclusive: 7.94 µM [inhibitor, full curve, poor fit]

SMILES | activity change, negative = inhibition | Potency
CC(C(Sc1ccccc1N)c1ccccc1)[N+](=O)[O-] (stereo not drawn) |  | inconclusive: 0.708 µM [inhibitor, full curve, poor fit]
O=C(O)Cn1cc(C(=S)N2CCOCC2)c2ccccc21 |  | active: 10 µM
Cc1cc(OC(=O)c2cccc([N+](=O)[O-])c2)c(C)cc1CN1CCOCC1 |  | inconclusive: 63.1 µM [inhibitor, partial curve, poor fit]
Cc1n[nH]c(C)c1CCC(=O)N/N=C/c1cccs1 | inconclusive: -30.7% [inhibitor] | 
CCC(CC)c1nnc(NC(=O)c2nc3nc(C)cc(C)n3n2)s1 |  | inconclusive: 3.55 µM [inhibitor, full curve, poor fit]
O=C(NNC(=O)c1csc(-c2cnccc2C(F)(F)F)n1)c1ccc(C(F)(F)F)cc1 |  | inconclusive: 112 µM [inhibitor, single point]
Cc1cc(Br)cc(Cl)c1OCC(=O)NCc1cccc(NC(=O)C2CC2)c1 | inactive: -27.2% | 
CSc1ccc(CN2CCC(Cc3ccccc3)CC2)cc1 |  | active: 1.58 µM
CCN(CC)c1ccc(NC(=O)Cn2nc(C)n3cccc3c2=O)c(C)c1 | inactive: -2.54% | 
Cn1c(=O)c2c(nc(Br)n2CCCc2ccccc2)n(C)c1=O | inactive: 0% | 
CN1CCN(C(=O)c2cc(=O)c3cc(Cl)cc(Cl)c3o2)CC1 |  | inconclusive: 89.1 µM [inhibitor, single point]
CC1=C[C@@H](CNC(=O)C2CC2)[C@H](C(C)C)C[C@H]1Cc1nnc(-c2ccccc2F)o1 | inactive: 10.2% [at 176 µM] | 
CCCCc1c(-c2ccccc2)ncn1CCc1ccccc1OC |  | inconclusive: 50.1 µM [inhibitor, single point]
CC(=O)c1ccc(NC(=O)c2ccc(-c3nc(CSc4ccccc4)c(C)o3)cc2)cc1 |  | inconclusive: 89.1 µM [inhibitor, partial curve, poor fit]
Fc1ccc(-c2noc3ncnc(NCC4CCN(Cc5ccc(Cl)cc5)CC4)c23)cc1 |  | inconclusive: 56.2 µM [inhibitor, partial curve, poor fit]
Cc1ccc(NC(=S)N2C3CCCC2CC(NC(=O)C2CC2)C3)cc1C (stereo not drawn) |  | inconclusive: 50.1 µM [inhibitor, partial curve, poor fit]
O=C(C1=C(O)C(=O)N(c2nccs2)C1c1ccccc1)c1cc2ccccc2o1 (stereo not drawn) |  | inconclusive: 3.98 µM [inhibitor, full curve, poor fit]
CS(=O)(=O)Cc1ccc(C(=O)NCC2(N3CCCCC3)CCCCC2)cc1 | inactive: 33% | 
CC(C)(C)C(=O)NC(=S)NCCc1ccccc1 |  | inconclusive: 0.708 µM [inhibitor, full curve, poor fit]
Cc1ccc(C(=O)/C=C/c2ccc(Br)cc2F)o1 |  | inconclusive: 44.7 µM [inhibitor, partial curve, poor fit]
S=c1[nH]ncc2ccccc12 |  | inconclusive: 39.8 µM [inhibitor, partial curve]
O=S(=O)(Nc1nc2ccccc2nc1Nc1ccc2c(c1)OCCO2)c1ccc(Cl)cc1 |  | inconclusive: 31.6 µM [inhibitor, single point]

Reformatted tab-delimited: entries from further up.
SMILES	activity change, negative = inhibition	Potency
O=C(O)Cn1cc(C(=S)N2CCOCC2)c2ccccc21		active: 10 µM
Cc1cc(OC(=O)c2cccc([N+](=O)[O-])c2)c(C)cc1CN1CCOCC1		inconclusive: 63.1 µM [inhibitor, partial curve, poor fit]
Cc1n[nH]c(C)c1CCC(=O)N/N=C/c1cccs1	inconclusive: -30.7% [inhibitor]	
CCC(CC)c1nnc(NC(=O)c2nc3nc(C)cc(C)n3n2)s1		inconclusive: 3.55 µM [inhibitor, full curve, poor fit]
O=C(NNC(=O)c1csc(-c2cnccc2C(F)(F)F)n1)c1ccc(C(F)(F)F)cc1		inconclusive: 112 µM [inhibitor, single point]
Cc1cc(Br)cc(Cl)c1OCC(=O)NCc1cccc(NC(=O)C2CC2)c1	inactive: -27.2%	
CSc1ccc(CN2CCC(Cc3ccccc3)CC2)cc1		active: 1.58 µM
CCN(CC)c1ccc(NC(=O)Cn2nc(C)n3cccc3c2=O)c(C)c1	inactive: -2.54%	
Cn1c(=O)c2c(nc(Br)n2CCCc2ccccc2)n(C)c1=O	inactive: 0%	
CN1CCN(C(=O)c2cc(=O)c3cc(Cl)cc(Cl)c3o2)CC1		inconclusive: 89.1 µM [inhibitor, single point]
CC1=C[C@@H](CNC(=O)C2CC2)[C@H](C(C)C)C[C@H]1Cc1nnc(-c2ccccc2F)o1	inactive: 10.2% [at 176 µM]	
CCCCc1c(-c2ccccc2)ncn1CCc1ccccc1OC		inconclusive: 50.1 µM [inhibitor, single point]
CC(=O)c1ccc(NC(=O)c2ccc(-c3nc(CSc4ccccc4)c(C)o3)cc2)cc1		inconclusive: 89.1 µM [inhibitor, partial curve, poor fit]
Fc1ccc(-c2noc3ncnc(NCC4CCN(Cc5ccc(Cl)cc5)CC4)c23)cc1		inconclusive: 56.2 µM [inhibitor, partial curve, poor fit]
Cc1ccc(NC(=S)N2C3CCCC2CC(NC(=O)C2CC2)C3)cc1C (stereo not drawn)		inconclusive: 50.1 µM [inhibitor, partial curve, poor fit]
O=C(C1=C(O)C(=O)N(c2nccs2)C1c1ccccc1)c1cc2ccccc2o1 (stereo not drawn)		inconclusive: 3.98 µM [inhibitor, full curve, poor fit]
CS(=O)(=O)Cc1ccc(C(=O)NCC2(N3CCCCC3)CCCCC2)cc1	inactive: 33%	
